Experimental data: publication PMC5655206
No constants are given. Whether binding was seen depends on the method and setting. In cells and extracts the contact can be indirect. Some binding calls cover weakened binding; strength is not graded here.

Chains of the proteins cited; added tags and fusions are not shown. Lines headed by an entry give the natural chain unless they say otherwise; changes in a name come on top.
UniProt O95817: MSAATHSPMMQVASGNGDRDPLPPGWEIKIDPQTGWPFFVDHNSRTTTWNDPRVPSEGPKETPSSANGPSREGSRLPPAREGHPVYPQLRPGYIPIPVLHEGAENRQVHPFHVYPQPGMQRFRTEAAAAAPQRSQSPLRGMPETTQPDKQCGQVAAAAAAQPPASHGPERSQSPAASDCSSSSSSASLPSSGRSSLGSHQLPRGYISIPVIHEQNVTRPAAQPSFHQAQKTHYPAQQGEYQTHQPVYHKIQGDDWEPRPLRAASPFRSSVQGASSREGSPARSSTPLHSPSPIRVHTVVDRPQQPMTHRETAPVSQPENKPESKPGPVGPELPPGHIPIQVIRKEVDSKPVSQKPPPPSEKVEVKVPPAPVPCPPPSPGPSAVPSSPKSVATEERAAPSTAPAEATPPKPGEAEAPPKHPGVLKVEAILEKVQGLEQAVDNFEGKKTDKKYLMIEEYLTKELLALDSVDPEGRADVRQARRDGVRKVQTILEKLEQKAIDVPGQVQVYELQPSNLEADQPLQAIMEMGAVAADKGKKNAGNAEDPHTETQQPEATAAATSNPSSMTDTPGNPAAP
UniProt P15056: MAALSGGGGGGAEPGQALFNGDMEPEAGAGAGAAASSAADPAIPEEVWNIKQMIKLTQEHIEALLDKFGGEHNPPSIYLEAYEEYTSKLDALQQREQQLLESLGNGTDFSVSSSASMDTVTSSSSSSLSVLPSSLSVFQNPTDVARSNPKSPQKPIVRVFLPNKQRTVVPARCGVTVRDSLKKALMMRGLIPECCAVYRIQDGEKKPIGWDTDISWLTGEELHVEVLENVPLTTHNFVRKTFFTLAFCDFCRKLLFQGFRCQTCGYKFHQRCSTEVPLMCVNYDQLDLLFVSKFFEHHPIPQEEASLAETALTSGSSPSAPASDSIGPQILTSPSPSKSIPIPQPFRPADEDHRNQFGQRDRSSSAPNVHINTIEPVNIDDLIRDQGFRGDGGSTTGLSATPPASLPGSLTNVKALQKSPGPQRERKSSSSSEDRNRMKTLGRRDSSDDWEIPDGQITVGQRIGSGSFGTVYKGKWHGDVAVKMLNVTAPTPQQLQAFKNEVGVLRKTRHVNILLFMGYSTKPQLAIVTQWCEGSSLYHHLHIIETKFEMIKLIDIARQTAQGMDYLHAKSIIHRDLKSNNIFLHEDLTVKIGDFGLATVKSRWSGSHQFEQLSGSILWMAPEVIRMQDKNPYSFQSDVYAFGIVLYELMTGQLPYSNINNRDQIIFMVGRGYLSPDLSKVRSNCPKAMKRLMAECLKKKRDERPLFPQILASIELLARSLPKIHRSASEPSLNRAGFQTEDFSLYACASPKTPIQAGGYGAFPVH

Biological target: BAG3 protein (human (endogenous in A375)) (UniProt O95817)
Test: co-IP; A375 cell extracts immunoprecipitated at 4°C overnight with anti-BAG3 mAb AC-2 coupled to Dynabeads; Western blot with anti-BAG3 polyclonal, anti-BRAF, anti-HSC70 and anti-GAPDH antibodies; mouse IgGs as negative control

- binding: binds
Substance: BRAFV600E (from UniProt P15056 1-766)
